{
  "source": "PubChem BioAssay AID504467",
  "about": "(National Center for Advancing Translational Sciences (NCATS), 2011)",
  "note": "Out of some 330,000 compounds screened, about 7,700 (2.3%) were called active. The shares of active, inactive and inconclusive entries below differ from those in the screen. Calls follow the shape of the dose curve; as a rule, active = well fitted inhibition curve with a large enough effect; inconclusive = small, poorly fitted or top-dose-only effect, or effect the other way; inactive = flat fitted curve, though single readings scatter. A potency beside an inconclusive call is a rough fit, not a confirmed value. Potency is read from the fitted curve at half-maximal effect.",
  "data": [
    {"assay": "qHTS screen for small molecules that inhibit ELG1-dependent DNA repair in human embryonic kidney (HEK293T) cells expressing luciferase-tagged ELG1; also: nearly all actives have a fitted effect of over 55% in size", "details": "HEK293T ELG1-luciferase reporter, luminescence, 16 h, DNA damage induced by 5-fluorouridine; series mostly up to 46.1 µM", "outline": "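Overnight (16 hr) co-exposure of 2,000 cells/well to 5-fluorouridine and compound at 37 °C preceded detection. Luciferase was quantified via ONE-Glo luminescence; loss of signal denotes inhibition.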", "values": [
      {"smiles": "CCn1ncc(NC(=S)Nc2ccc3c(c2)OCO3)c1C(N)=O", "Potency": "inactive"},
      {"smiles": "CCN(CC)S(=O)(=O)c1ccc(N2CCOCC2)c(NC(=O)COc2ccc(OC)cc2)c1", "Potency": "active: 18.3 µM"},
      {"smiles": "COc1ccc(C(C)=O)cc1CSc1nnc(-c2ccncc2)n1C", "Potency": "inactive"},
      {"smiles": "CC1CCC/C(=C\\Nc2ccc(C(=O)O)cc2)C1=O", "note": "(stereo not drawn)", "Potency": "inconclusive: 1.3 µM [activator, partial curve]"},
      {"smiles": "CCn1c(O)c(N=NC(=O)CNC(=O)c2ccccc2F)c2ccccc21", "Potency": "inactive"},
      {"smiles": "CCOc1ccc(-c2c(=O)n(OCC)c3ccccc3[n+]2[O-])cc1", "Potency": "inactive"},
      {"smiles": "Nc1c(C(=O)N2CCOCC2)sc2nc(N3CCOCC3)c3c(c12)CCCC3", "Potency": "inconclusive: 13 µM [inhibitor, partial curve]"},
      {"smiles": "Cc1ccc(CNS(=O)(=O)NCc2ccccc2)cc1", "Potency": "inactive"},
      {"smiles": "Cc1cnc(N2C(=O)c3ccc([N+](=O)[O-])cc3C2=O)s1", "Potency": "inactive"},
      {"smiles": "Cc1cc(Oc2ccccc2)nc(-c2ccccc2)n1", "Potency": "inconclusive: 35.5 µM [activator, single point]"},
      {"smiles": "CC(C)(C)NC(=O)CN(Cc1ccc(F)cc1)C(=O)Cn1nnc(-c2ccc(F)cc2)n1", "Potency": "inactive"},
      {"smiles": "O=C(/C=C/c1c(Cl)cccc1Cl)NCCc1ccccc1", "Potency": "inconclusive: 14.6 µM [activator, partial curve]"},
      {"smiles": "COC(=O)c1ccc2nc(NC(=O)C(C)C)sc2c1", "Potency": "inconclusive: 1.83 µM [activator, full curve]"},
      {"smiles": "c1ccc(-c2ccccc2OCCCCn2ccnc2)cc1", "Potency": "inactive"},
      {"smiles": "N#CC1(NC(=O)COC(=O)c2ccc(-c3ccc(O)cc3)cc2)CCCCC1", "Potency": "inconclusive: 12.6 µM [activator, partial curve]"},
      {"smiles": "COC(=O)COc1ccc2c(=O)c(Oc3ccccc3)c(C)oc2c1", "Potency": "inactive"},
      {"smiles": "CCSc1nc2ccccc2c(=O)n1CCc1ccc(OC)c(OC)c1", "Potency": "inconclusive: 18.3 µM [inhibitor, single point]"},
      {"smiles": "Cc1ccc([C@H]2C(C(=O)O)=CC[C@@H](c3cccs3)N2S(=O)(=O)c2ccc(C)cc2)cc1", "Potency": "inactive"},
      {"smiles": "OC1(c2ccc(OC(F)F)cc2)CSC(=Nc2cccnc2)N1Cc1ccco1", "note": "(stereo not drawn)", "Potency": "active: 18.3 µM"},
      {"smiles": "COCCCn1c(SCC(=O)n2c(C)c(C)c3ccccc32)nnc1-c1ccoc1C", "Potency": "inconclusive: 6.51 µM [activator, single point]"},
      {"smiles": "S=C1NCN(C2CCCCC2)CN1c1ccccc1", "Potency": "inactive"},
      {"smiles": "O=C(N/N=C/c1ccc2c(c1)OCO2)c1ccc(Cn2cc([N+](=O)[O-])cn2)o1", "Potency": "inconclusive: 29.1 µM [activator, partial curve, poor fit]"},
      {"smiles": "O=S(=O)(NCC1CCCO1)c1ccc(Oc2ccccc2)cc1", "note": "(stereo not drawn)", "Potency": "inconclusive: 8.2 µM [inhibitor, partial curve]"},
      {"smiles": "CCOC(=O)C1CCCN(C2=NC(=O)/C(=C/c3ccc(O)c(OC)c3)S2)C1", "note": "(stereo not drawn)", "Potency": "inconclusive: 14.6 µM [activator, partial curve, poor fit]"},
      {"smiles": "COc1ccccc1CNC(=O)COC(=O)C1CC1", "Potency": "inconclusive: 20.6 µM [activator, partial curve, poor fit]"},
      {"smiles": "Cc1cccc2nc(CSc3nc4ccccc4[nH]3)cn12", "Potency": "inconclusive: 29.1 µM [activator, single point]"},
      {"smiles": "CCOC(=O)c1c(C)n(C)c2ccc(OC(C)C(=O)OC)cc12", "note": "(stereo not drawn)", "Potency": "inconclusive: 25.9 µM [inhibitor, single point]"},
      {"smiles": "COc1ccc(C(C(=O)NC(C)(C)C)N(C(=O)CCC(=O)Nc2cc(C)on2)c2c(C)cccc2C)cc1", "note": "(stereo not drawn)", "Potency": "inactive"},
      {"smiles": "COc1ccc(N2CCN(C(=O)CSc3nnc(-c4cccnc4)n3-c3ccc(F)cc3)CC2)cc1", "Potency": "inconclusive: 16.4 µM [inhibitor, single point]"},
      {"smiles": "CC(=O)N1CCC2(CC1)CC(=O)c1cc(OCC(=O)N3CCOCC3)ccc1O2", "Potency": "inactive"},
      {"smiles": "COc1ccc2c(c1OC)c(=O)n1c3ccc(OC(C)C(=O)NCCCN4CCOCC4)cc3c3ccnc2c31", "note": "(stereo not drawn)", "Potency": "inconclusive: 4.61 µM [inhibitor, single point]"},
      {"smiles": "Cc1nc2c(-c3ccc(Cl)cc3)cnn2c2c1CCC2", "Potency": "inconclusive: 29.1 µM [activator, single point]"},
      {"smiles": "O=C(Nc1cccc(C(F)(F)F)c1)C1CCN(S(=O)(=O)c2ccc(N3CCCC3=O)cc2)CC1", "Potency": "inactive"},
      {"smiles": "CCCOc1ccccc1C1C(C(=O)OC)=CN(C(C)C)C=C1C(=O)OC", "Potency": "inactive"},
      {"smiles": "Cc1ccc(NC(=O)CN2CCC(C(=O)c3ccc4c(c3)OCCO4)CC2)cc1", "Potency": "inactive"},
      {"smiles": "COc1ccccc1C(=O)Nc1nc2cc3c(cc2s1)OCO3", "Potency": "inconclusive: 8.2 µM [activator, partial curve]"},
      {"smiles": "Cc1ccsc1C(=O)N(C)C1CCS(=O)(=O)C1", "note": "(stereo not drawn)", "Potency": "inconclusive: 32.6 µM [activator, single point]"},
      {"smiles": "N/C(Cn1cncn1)=N\\NC(=O)C(=O)Nc1ccc(Cl)cc1Cl", "Potency": "inconclusive: 20.6 µM [activator, single point]"},
      {"smiles": "Cn1c(=O)c2c(SCCN3CCOCC3)nc(C3CCCC3)nc2n(C)c1=O", "Potency": "inactive"},
      {"smiles": "CC1CCCN(C(=O)CSc2nc3ccccc3o2)C1", "note": "(stereo not drawn)", "Potency": "inconclusive: 18.4 µM [activator, partial curve]"},
      {"smiles": "COc1ccc(C)cc1NC(=O)c1sc2ncn(CC(=O)N3CCCCC3)c(=O)c2c1C", "Potency": "inactive"},
      {"smiles": "COc1cc(/C=N/n2c(-c3ccccc3)n[nH]c2=S)cc(OC)c1O", "Potency": "inactive"},
      {"smiles": "Cc1ccc(NC(CC(=O)c2ccccc2)C(=O)O)cc1Cl", "note": "(stereo not drawn)", "Potency": "inconclusive: 8.2 µM [activator, partial curve]"},
      {"smiles": "O=C(COc1ccc2c(c1)C(=O)CC1(CCCCC1)O2)NCc1ccccc1", "Potency": "inconclusive: 23.1 µM [inhibitor, single point]"},
      {"smiles": "CC(=O)c1ccc(NS(=O)(=O)c2cccc(C(=O)Nc3ccccc3C(=O)O)c2)cc1", "Potency": "inactive"},
      {"smiles": "Cc1ccc(NC(=O)Cn2nnc3ccccc3c2=O)cc1", "Potency": "inconclusive: 29.1 µM [activator, single point]"},
      {"smiles": "CC1CCN(C(=O)COC(=O)c2ccc(Cl)nc2)CC1", "Potency": "inconclusive: 18.3 µM [activator, single point]"},
      {"smiles": "CC1CCCC(C)N1C(=S)SCC(=O)O", "note": "(stereo not drawn)", "Potency": "inactive"}
    ]}
  ]
}
